From PubChem BioAssay AID2685 (National Center for Advancing Translational Sciences (NCATS), 2010)
Some of the results follow. These are further read-outs of the screen, such as a control signal, another cell line or another target. No call is given for them. The list favours compounds with an active or inconclusive main result. Potencies come from curve fits of mixed quality, noted in brackets.

Assay: qHTS Assay for Lipid Storage Modulators in Drosophila S3 Cells;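 for cell number change: cells counted by Cell Tracker Red CMTPX staining in the red channel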
Conditions: BODIPY lipid droplet fluorescence, 18-24 h; for cell number change: measured here: cell count max response, cells fed with added oleic acid
How it was run: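 Laser-scanning cytometry quantifies lipid droplet accumulation (500–530 nm total intensity; droplet/cell object ratio) in oleic acid-fed (400 uM added) Drosophila S3 cells treated with a concentration series. 20 uM Triacsin C defined 100% inhibition.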

[1] = measured here: lipid fluorescence (Fed channel) AC50, cells fed with added oleic acid
[2] = measured here: cell number channel AC50, cells fed with added oleic acid

SMILES	cell number change [%]	AC50 [1]	AC50 [2]
CC(C)(C)c1csc(NC(=O)C2COc3ccccc3O2)n1 (stereo not drawn)	1.76	2.06 µM [rising, full curve, poor fit]	–
O=C(COC(=O)c1cnccn1)NCc1ccc(Cl)cc1	92.3	–	–
CN(CC(O)COc1ccc(S(=O)(=O)N2CCOCC2)cc1Cl)C1CCCCC1 (stereo not drawn)	-15.3	–	0.116 µM [falling, full curve, poor fit]
CCOC(=O)Cn1c(CN2CCc3ccccc3C2)nc2c1c(=O)n(C)c(=O)n2C	-29.8	5.8 µM [falling, full curve]	0.103 µM [rising, full curve, poor fit]
CC(NC(=O)c1ccc(N2CCCC2=O)cc1)c1ccccc1 (stereo not drawn)	-15.8	–	–
Cc1cnc(NC(=O)c2ccc(Cl)nc2)s1	-29.8	–	–
CCCCc1ccccc1NC(=S)NC1CCCC1	-37.6	29.1 µM [falling, single point]	–
CC(=O)Nc1c(C(=O)N2CCOCC2)cnn1-c1ccc(C)c(C)c1	99	25.9 µM [rising, single point]	29.1 µM [rising, single point]
CCOC(=O)C1(Cc2ccccc2)CCN(Cc2ccc3cc(NC(C)=O)ccc3n2)CC1	–	6.51 µM [rising, single point]	–
COCCn1c(=O)[nH]c2cc(C(=O)NCCN3CCN(c4ccccc4)CC3)ccc2c1=O	6.77	20.6 µM [falling, partial curve, poor fit]	–
CC1(C)C(=O)Nc2ccccc2N1C(=O)CSc1ncccn1	-2.28	0.0058 µM [falling, full curve, poor fit]	0.00411 µM [falling, full curve, poor fit]
Cc1cc(NC(=O)/C=C/c2ccc(F)cc2)n(-c2nc3ccccc3[nH]2)n1	-27.8	29.1 µM [falling, single point]	–
CN(C(=O)C1CCN(S(=O)(=O)c2ccccc2)CC1)c1c(N)n(Cc2ccccc2)c(=O)[nH]c1=O	-29.3	6.51 µM [falling, partial curve, poor fit]	–
CCCn1c(N)c(C(=O)CSc2nnc3ccccn23)c(=O)n(C)c1=O	0.803	–	–
COc1ccc(C(=O)NCCCn2nc(C)cc2C)cc1S(=O)(=O)N1CCOCC1	137	18.4 µM [rising, partial curve]	20.6 µM [rising, partial curve]
Cc1ccc(NC(=O)/C(=C/c2ccncc2)NC(=O)c2ccccc2)cc1	-2.63	36.6 µM [falling, partial curve, poor fit]	–
CCCCN(CC)S(=O)(=O)c1c(C)[nH]c(=O)[nH]c1=O	-33.3	0.058 µM [falling, full curve]	2.59 µM [falling, partial curve, poor fit]

Sorted by molar mass (descending): part of the list above.
SMILES	cell number change [%]	AC50 [1]	AC50 [2]
COCCn1c(=O)[nH]c2cc(C(=O)NCCN3CCN(c4ccccc4)CC3)ccc2c1=O	6.77	20.6 µM [falling, partial curve, poor fit]	–
CCOC(=O)C1(Cc2ccccc2)CCN(Cc2ccc3cc(NC(C)=O)ccc3n2)CC1	–	6.51 µM [rising, single point]	–
CCCCN(CC)S(=O)(=O)c1c(C)[nH]c(=O)[nH]c1=O	-33.3	0.058 µM [falling, full curve]	2.59 µM [falling, partial curve, poor fit]

The list continues.

SMILES	cell number change [%]	AC50 [1]	AC50 [2]
CCN(CC)S(=O)(=O)c1cc(C(=O)Nc2cc(S(=O)(=O)N3CCOCC3)ccc2N2CCCC2)ccc1F	-4.59	6.51 µM [falling, single point]	0.082 µM [falling, full curve, poor fit]
C=CCSc1nncn1/N=C/c1ccc(OC)cc1	-1.16	1.3 µM [rising, partial curve]	–
O=C(N/N=C\c1ccc(CN(Cc2ccc(Cl)cc2)S(=O)(=O)c2ccccc2)o1)C(=O)Nc1ccc(F)cc1	0.58	18.4 µM [rising, partial curve]	–
Cc1ccc(S(=O)(=O)NCCCNS(=O)(=O)c2ccccc2)cc1	31.7	–	–
NC(=O)c1cc(-c2ccccc2)nc(N2CCCCCC2)n1	-47.3	20.6 µM [falling, single point]	29.1 µM [falling, single point]
Cc1cccc(N2CC(C)Cn3c2nc2c3c(=O)n(CC(=O)OCc3ccccc3)c(=O)n2C)c1 (stereo not drawn)	0.656	2.06 µM [rising, partial curve]	0.146 µM [rising, full curve, poor fit]
CN1C(=O)[C@H]2[C@@H](/C=C/c3ccccc3)N3C(=O)CN(Cc4ccccn4)C(=O)[C@@]3(C)[C@H]2C1=O	-3.59	–	–
CSCC[C@H](N)C(=O)N1CCC(C(=O)N[C@H](C(=O)NCc2ccccc2F)C(C)C)CC1	-13.2	0.00461 µM [falling, full curve, poor fit]	–
CCCCCCc1cc2cc(S(=O)(=O)c3ccc(Cl)cc3)c(=O)oc2cc1O	-75.3	18.4 µM [falling, single point]	20.6 µM [falling, single point]
O=C(CO/N=C/c1ccccc1OC(F)F)NC1CCCCC1	46.7	–	23.1 µM [rising, single point]
Cc1cc(C(=O)N/N=C\C(Br)=C\c2ccccc2)c(C)o1	26.5	–	0.731 µM [falling, single point]
COc1ccc(/C=C/C(=O)NNC(=O)c2ccncc2)c(OC)c1	-4.52	0.58 µM [falling, single point]	–
COc1ccc(CCNC(=O)c2cc3c(=O)n4ccccc4nc3n(C3CCCCC3)c2=N)cc1	-26.5	11.6 µM [falling, single point]	2.31 µM [rising, single point]
Cc1cc(OCC(=O)NCC2CCC(C(=O)O)CC2)c2c(C)cc(=O)oc2c1 (stereo not drawn)	23	5.17 µM [rising, full curve]	–
COc1ccccc1NC(=O)/C(=C/c1cccs1)NC(=O)c1ccco1	-37.2	29.1 µM [falling, partial curve, poor fit]	5.17 µM [falling, partial curve, poor fit]
COc1ccc(N2C(=O)CC(N3CCN(S(=O)(=O)c4c(C)cc(C)cc4C)CC3)C2=O)cc1 (stereo not drawn)	-34.8	1.64 µM [falling, partial curve]	0.731 µM [falling, full curve, poor fit]
COc1ccc(/C=C/C(=O)NC(C)CCc2ccccc2)cc1 (stereo not drawn)	3.99	0.103 µM [rising, full curve, poor fit]	–
